Target: T1, PCV2 Cap protein (Porcine circovirus 2, UniProt O56129)
T1 construct: made in house; host or cells: E. coli BL21 (pET28a-Cap)
Assay: biochemical
Format: binding, porcine circovirus type II
Experimental: The equilibrium binding constant (KD) of peptides was determined using an Open SPR instrument (Nicoya, Canada). First, purified Cap protein was covalently immobilized on a carboxyl Au colloidal nanoparticles chip. […] Then, all peptides were respectively dissolved in PBS at predetermined concentrations and injected to detect the resonance signal changes. In each cycle, 300 µL of peptide solution was injected into the flow cell of the Cap chip for 5 min. Finally, the data were assessed to determine the association constant (ka, 1/Ms), the dissociation constant (kd, 1/s), the equilibrium binding constant (KD, M), and KD = kd/ka via Trace Drawer 1.7 (Nicoya, Canada).
All the steps were performed according to manufacturer’s instructions. First, the activation of carboxyl chip: the chip is activated by the EDC/NHS reagent in the amine coupling kit. […] The last step is to block the chip with blocking buffer. In every step, The 300 μL sample was flowed through the chip for 5 min at a constant flow rate of 20 μL/min.
Dissociation constant Kd represents the ratio of AB (ie, AB) dissociated in unit time to the initial AB before dissociation, which represents the speed of the dissociation reaction.Equilibrium dissociation constant KD =kd/ka, KD unit is M (mol/L)
1:1 binding interaction model represents the binding mode of ligand and target according to 1:1. […]

Amino acid sequences for entries named in this document (tags omitted).
UniProt O56129, whole entry: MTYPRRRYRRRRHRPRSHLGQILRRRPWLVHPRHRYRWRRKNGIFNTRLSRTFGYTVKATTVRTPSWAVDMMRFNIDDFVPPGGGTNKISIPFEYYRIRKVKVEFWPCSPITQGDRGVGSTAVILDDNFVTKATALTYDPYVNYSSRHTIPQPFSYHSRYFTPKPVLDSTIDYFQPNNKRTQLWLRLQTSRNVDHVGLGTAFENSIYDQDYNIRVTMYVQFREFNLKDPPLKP

SMILES: NC(=O)CC[C@H](NC(=O)[C@H](Cc1c[nH]c2ccccc12)NC(=O)[C@H](Cc1c[nH]c2ccccc12)NC(=O)[C@H](Cc1ccc(O)cc1)NC(=O)[C@@H](N)CC(=O)O)C(=O)N[C@@H](CO)C(=O)N[C@@H](Cc1c[nH]c2ccccc12)C(=O)N[C@@H](CCC(=O)O)C(=O)O [Peptide L11]
- Kd: 103 nM
